Measurements as given in the supplement of paper PMC10849652.
The list shows a part of the results.

Sequences of proteins named here, by UniProt entry; tags and fusion partners are left off. A change or cut given only in a name is not applied to a line headed by its entry.
UniProt O43678, whole entry, looked up: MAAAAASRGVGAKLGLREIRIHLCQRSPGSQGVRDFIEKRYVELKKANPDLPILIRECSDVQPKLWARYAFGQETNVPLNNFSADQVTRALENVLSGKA
UniProt O95544: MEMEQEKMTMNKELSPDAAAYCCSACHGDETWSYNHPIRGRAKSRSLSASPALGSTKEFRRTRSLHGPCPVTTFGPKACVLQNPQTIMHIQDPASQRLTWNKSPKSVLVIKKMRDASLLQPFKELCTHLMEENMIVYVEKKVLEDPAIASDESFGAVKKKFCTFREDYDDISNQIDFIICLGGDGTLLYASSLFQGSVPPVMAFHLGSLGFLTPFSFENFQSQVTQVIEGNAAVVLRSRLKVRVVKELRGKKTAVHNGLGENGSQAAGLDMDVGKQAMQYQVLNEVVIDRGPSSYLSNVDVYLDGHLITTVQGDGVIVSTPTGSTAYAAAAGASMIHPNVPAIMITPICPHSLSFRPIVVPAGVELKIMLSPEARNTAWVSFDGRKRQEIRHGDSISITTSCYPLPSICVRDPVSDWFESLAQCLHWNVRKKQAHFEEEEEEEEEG
UniProt Q99733: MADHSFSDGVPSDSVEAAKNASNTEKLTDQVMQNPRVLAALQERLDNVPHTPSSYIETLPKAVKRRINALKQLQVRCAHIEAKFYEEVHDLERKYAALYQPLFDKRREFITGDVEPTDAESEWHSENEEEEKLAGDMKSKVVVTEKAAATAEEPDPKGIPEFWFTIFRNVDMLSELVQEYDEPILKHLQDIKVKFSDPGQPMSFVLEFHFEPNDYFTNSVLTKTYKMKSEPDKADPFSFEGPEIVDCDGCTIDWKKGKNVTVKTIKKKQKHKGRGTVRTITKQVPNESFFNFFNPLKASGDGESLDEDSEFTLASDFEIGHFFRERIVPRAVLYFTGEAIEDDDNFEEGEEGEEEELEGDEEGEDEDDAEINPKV
UniProt Q96NT1: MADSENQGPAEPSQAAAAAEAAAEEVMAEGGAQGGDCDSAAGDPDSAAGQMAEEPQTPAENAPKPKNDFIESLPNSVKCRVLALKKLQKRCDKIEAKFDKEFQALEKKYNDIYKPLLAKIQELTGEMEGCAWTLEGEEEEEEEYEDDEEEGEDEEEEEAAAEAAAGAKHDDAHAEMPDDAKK
UniProt Q6IA69: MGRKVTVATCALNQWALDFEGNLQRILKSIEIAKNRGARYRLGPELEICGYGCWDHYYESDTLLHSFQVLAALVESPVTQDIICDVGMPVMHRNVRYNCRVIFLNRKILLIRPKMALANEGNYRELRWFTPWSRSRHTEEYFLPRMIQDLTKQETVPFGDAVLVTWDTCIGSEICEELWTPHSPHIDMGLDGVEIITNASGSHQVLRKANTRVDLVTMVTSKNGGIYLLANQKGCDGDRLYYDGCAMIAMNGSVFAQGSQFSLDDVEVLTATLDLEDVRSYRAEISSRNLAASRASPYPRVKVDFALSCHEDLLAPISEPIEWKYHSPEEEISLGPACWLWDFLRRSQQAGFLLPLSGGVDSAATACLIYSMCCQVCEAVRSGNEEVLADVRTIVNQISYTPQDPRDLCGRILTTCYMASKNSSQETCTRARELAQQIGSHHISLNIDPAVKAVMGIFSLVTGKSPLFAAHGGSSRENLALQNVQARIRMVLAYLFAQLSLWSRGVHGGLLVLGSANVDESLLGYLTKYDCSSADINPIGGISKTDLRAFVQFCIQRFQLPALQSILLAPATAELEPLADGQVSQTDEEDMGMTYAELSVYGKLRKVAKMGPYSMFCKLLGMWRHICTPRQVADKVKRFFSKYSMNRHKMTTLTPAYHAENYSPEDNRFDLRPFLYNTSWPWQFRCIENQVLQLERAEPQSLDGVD
UniProt O95182, whole entry, looked up: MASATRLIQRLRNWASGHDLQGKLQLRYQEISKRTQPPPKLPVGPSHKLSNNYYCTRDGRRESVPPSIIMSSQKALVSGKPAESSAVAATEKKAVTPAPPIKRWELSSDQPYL
UniProt O75438, whole entry, looked up: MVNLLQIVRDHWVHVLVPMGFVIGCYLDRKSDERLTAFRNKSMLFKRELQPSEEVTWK
UniProt O95298, whole entry, looked up: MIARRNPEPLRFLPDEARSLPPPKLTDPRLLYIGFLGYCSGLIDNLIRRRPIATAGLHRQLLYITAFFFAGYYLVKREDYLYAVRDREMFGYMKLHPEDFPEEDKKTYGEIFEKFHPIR
UniProt Q96HR8: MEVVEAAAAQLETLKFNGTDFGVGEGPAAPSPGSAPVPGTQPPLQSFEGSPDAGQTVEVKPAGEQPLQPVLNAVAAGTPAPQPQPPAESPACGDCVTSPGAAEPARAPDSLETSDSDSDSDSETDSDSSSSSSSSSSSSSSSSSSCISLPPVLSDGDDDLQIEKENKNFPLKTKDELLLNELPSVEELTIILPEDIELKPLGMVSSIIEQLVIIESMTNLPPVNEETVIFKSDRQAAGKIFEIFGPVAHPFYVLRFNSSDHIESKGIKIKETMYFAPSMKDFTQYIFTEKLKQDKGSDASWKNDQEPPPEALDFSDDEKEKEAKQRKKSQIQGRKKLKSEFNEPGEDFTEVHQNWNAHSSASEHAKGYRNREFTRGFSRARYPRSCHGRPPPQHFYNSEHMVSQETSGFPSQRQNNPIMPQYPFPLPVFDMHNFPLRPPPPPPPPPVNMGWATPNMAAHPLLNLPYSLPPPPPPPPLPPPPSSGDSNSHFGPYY
UniProt O43181, whole entry, looked up: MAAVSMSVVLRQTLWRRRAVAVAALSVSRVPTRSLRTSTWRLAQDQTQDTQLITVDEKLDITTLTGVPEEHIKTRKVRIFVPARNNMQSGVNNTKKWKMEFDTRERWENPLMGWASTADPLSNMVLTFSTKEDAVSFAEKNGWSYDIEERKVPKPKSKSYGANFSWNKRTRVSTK
UniProt O00483, whole entry, looked up: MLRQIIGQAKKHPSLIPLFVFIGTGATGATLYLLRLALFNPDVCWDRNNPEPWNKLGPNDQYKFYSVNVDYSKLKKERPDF
UniProt Q96RE7: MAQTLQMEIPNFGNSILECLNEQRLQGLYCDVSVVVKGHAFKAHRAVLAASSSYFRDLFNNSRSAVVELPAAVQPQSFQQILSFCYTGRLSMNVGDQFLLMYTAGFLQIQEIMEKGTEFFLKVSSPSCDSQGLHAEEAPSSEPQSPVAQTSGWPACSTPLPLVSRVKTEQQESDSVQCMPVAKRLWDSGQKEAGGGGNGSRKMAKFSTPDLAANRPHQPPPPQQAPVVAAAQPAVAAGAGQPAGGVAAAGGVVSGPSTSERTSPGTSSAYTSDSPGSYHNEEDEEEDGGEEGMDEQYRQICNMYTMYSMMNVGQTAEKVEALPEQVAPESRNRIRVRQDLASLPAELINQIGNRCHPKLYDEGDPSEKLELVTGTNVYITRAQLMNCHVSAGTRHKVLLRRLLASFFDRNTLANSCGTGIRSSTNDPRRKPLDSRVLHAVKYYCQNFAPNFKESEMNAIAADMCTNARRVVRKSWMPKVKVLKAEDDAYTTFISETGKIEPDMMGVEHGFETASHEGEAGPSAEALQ
UniProt P12036: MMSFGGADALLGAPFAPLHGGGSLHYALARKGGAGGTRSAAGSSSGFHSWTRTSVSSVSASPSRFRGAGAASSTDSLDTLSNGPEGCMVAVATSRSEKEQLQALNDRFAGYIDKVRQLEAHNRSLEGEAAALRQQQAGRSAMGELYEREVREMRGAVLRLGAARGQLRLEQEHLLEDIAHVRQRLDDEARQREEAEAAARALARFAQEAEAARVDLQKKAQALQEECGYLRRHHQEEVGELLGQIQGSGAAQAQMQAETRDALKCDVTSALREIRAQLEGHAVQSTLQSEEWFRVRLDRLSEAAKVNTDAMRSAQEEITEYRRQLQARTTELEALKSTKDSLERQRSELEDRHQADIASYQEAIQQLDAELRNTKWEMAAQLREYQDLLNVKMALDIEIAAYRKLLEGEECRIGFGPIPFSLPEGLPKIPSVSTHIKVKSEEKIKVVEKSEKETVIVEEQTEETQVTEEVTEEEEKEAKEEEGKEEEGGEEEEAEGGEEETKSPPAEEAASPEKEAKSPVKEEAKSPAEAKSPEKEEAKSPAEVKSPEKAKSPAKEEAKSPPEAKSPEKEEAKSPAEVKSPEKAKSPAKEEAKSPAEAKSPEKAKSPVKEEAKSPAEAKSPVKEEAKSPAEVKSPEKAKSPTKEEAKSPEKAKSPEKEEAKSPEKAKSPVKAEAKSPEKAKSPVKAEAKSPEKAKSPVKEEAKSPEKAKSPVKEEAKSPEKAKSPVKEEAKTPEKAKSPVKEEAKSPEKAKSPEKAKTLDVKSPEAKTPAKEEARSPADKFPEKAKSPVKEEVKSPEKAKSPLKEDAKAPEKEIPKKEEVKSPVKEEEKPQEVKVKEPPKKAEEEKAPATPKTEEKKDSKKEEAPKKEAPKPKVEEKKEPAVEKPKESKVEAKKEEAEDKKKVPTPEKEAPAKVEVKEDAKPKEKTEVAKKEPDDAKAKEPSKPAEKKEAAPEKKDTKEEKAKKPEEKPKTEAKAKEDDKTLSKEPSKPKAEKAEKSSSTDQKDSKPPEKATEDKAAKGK
UniProt Q92542, whole entry, looked up: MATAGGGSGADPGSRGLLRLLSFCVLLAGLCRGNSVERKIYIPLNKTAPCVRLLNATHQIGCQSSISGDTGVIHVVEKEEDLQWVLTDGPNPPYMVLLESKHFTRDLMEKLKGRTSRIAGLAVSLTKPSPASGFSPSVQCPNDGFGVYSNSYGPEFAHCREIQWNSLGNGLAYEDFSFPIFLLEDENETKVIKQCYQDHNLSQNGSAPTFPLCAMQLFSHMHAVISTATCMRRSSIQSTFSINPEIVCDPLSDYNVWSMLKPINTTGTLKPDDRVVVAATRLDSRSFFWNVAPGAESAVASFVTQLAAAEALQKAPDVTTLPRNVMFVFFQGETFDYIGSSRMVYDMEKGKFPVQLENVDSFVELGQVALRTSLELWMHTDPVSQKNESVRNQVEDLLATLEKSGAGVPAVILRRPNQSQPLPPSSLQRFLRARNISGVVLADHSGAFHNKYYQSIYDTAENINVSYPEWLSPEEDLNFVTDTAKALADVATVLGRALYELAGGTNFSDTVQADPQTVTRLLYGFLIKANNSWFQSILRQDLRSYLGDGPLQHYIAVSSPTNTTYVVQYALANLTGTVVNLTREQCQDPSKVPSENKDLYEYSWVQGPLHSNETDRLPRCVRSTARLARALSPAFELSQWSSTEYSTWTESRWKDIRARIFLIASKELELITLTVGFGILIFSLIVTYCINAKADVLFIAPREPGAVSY
UniProt O95167, whole entry, looked up: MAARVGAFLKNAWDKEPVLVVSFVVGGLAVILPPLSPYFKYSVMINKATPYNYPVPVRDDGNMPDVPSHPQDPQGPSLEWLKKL
UniProt Q8NI08: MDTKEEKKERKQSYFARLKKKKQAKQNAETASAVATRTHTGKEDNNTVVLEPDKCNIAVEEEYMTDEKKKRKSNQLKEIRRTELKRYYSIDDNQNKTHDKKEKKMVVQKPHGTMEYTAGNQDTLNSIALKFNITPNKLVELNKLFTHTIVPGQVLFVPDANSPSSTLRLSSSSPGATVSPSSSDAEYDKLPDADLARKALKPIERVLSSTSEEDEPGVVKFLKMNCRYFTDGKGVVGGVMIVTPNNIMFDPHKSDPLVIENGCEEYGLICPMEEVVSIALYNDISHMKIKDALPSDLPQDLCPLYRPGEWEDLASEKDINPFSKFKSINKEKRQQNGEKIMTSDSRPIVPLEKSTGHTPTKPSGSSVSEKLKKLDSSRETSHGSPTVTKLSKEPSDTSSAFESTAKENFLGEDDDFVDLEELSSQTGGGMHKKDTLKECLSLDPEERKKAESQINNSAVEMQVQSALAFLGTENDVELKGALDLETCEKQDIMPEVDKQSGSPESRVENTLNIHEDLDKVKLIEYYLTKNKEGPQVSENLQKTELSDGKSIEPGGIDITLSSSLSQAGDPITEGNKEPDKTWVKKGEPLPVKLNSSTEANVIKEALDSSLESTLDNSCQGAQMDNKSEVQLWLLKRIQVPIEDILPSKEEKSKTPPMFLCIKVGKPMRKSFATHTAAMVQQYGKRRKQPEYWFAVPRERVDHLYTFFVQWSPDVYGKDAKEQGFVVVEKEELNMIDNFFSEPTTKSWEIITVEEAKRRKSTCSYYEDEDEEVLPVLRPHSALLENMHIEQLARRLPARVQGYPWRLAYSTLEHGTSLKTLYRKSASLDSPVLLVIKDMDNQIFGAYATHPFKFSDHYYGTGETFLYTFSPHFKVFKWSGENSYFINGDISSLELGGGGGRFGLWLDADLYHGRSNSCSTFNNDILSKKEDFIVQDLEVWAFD
UniProt O95299, whole entry, looked up: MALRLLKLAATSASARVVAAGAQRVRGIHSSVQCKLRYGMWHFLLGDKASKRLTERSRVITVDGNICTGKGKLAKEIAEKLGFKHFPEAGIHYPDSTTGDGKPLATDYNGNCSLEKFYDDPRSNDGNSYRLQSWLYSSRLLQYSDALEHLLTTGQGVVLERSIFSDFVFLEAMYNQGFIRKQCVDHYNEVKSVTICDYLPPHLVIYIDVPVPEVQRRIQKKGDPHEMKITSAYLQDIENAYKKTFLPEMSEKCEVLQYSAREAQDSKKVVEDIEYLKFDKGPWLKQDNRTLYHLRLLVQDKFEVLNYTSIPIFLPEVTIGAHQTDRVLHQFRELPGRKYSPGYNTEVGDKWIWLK
UniProt P56181: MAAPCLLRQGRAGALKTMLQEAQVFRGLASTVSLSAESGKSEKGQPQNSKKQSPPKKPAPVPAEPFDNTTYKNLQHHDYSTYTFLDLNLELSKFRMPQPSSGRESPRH

compound: Nc1ccccc1NC(=O)c1ccc(CNC(=O)OCc2cccnc2)cc1 [entinostat]; assay: log2 fold change, soluble protein after heating vs DMSO (PISA); higher = thermal stabilisation; K562 cells, 10 uM, 30 min; active = over 0.2 and 3.5 SD of the protein, either way, in both replicates (recomputed)
Summary of the method: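 K562 cells at 2×10^6 cells/mL were exposed to 10 μM compound for 30 min, then aliquots were heated for 3 min across 48°C-58°C, pooled, and extracted in PBS containing 0.5% NP-40 at 4°C. The supernatant after 21,000xg for 90 min was taken as soluble protein and measured by TMTpro 16plex LC-MS/MS with channel sums equalised. Thermal stability is reported relative to control samples, with values from duplicates. Fold changes are given on a log2 scale.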

Target | log2 fold change
NDUFA6 (UniProt P56556) | inactive: 0.056
NARS2 (UniProt Q96I59) | inactive: 0.012
NEDD8 (UniProt Q15843) | inactive: 0.045
NDUFA2 (UniProt O43678) | inactive: 0.112
NDUFAF7 (UniProt Q7L592) | inactive: -0.019
NDUFB5 (UniProt O43674) | inactive: 0.024
NADK (UniProt O95544) | inactive: -0.007
NANP (UniProt Q8TBE9) | inactive: 0.09
NDUFS3 (UniProt O75489) | inactive: -0.02
NAP1L4 isoform 2 (UniProt Q99733) | inactive: 0.008
NAP1L5 (UniProt Q96NT1) | inactive: 0.038
NDRG3 (UniProt Q9UGV2) | inactive: 0.039
NADSYN1 (UniProt Q6IA69) | inactive: -0.033
NDUFA7 (UniProt O95182) | inactive: 0
NDUFB1 (UniProt O75438) | inactive: 0.055
NAA15, A0A0B4J1W3 | inactive: 0.171
NA, A0A096LPI6 | inactive: -0.006

Target | log2 fold change
NCEH1 isoform 2 (UniProt Q6PIU2) | inactive: -0.033
NDUFAF4 (UniProt Q9P032) | inactive: 0.018
NDUFC2 (UniProt O95298) | inactive: 0.042
NAF1 (UniProt Q96HR8) | inactive: -0.03
NCOA6 (UniProt Q14686) | inactive: 0.015
NDUFS4 (UniProt O43181) | inactive: -0.095
NAGK isoform 2 (UniProt Q9UJ70) | inactive: -0.046
NDUFA4 (UniProt O00483) | inactive: 0.061
NACC1 (UniProt Q96RE7) | inactive: 0.062
NEFH (UniProt P12036) | inactive: -0.013
NCSTN (UniProt Q92542) | inactive: 0.004
NDUFA3 (UniProt O95167) | inactive: 0.084
NCOA7 (UniProt Q8NI08) | inactive: -0.067
NDUFA10 (UniProt O95299) | inactive: 0
NACA (UniProt E9PAV3) | inactive: -0.033
NDUFV3 isoform 2 (UniProt P56181) | inactive: -0.053

Rewritten field by field: entries from further up.
NCOA7 (UniProt Q8NI08)
  log2 fold change: inactive: -0.067
NDUFA10 (UniProt O95299)
  log2 fold change: inactive: 0
